Assay results as given in publication PMC4239118.

T1: STE-20-GFP (Neurospora crassa) (UniProt Q7RZD3)
T1 sequence: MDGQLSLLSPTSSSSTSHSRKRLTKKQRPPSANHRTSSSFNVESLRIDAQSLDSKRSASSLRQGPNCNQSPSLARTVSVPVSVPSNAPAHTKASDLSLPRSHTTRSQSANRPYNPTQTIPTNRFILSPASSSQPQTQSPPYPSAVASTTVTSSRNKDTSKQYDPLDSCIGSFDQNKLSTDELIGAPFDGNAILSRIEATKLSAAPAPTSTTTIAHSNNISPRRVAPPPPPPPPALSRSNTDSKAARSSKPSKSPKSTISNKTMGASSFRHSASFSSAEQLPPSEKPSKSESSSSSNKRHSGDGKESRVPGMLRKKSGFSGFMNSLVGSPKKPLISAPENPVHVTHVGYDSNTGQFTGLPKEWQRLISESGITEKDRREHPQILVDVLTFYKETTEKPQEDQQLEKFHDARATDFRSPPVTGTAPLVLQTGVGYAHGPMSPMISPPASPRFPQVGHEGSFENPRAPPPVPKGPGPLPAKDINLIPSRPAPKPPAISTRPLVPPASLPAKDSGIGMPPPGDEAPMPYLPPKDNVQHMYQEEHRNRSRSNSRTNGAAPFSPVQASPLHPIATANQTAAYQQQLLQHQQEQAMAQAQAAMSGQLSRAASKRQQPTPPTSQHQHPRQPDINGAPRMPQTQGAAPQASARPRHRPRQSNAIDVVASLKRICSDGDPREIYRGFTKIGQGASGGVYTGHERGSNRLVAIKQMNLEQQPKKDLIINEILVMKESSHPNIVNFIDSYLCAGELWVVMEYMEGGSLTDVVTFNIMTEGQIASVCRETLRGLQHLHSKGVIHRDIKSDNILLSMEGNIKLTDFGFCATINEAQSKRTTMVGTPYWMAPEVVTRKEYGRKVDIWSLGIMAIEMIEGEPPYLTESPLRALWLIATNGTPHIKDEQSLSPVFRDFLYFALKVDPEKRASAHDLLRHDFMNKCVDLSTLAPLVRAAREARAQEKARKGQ

B1: HAM-4 (protein, UniProt Q7SDL6 1-797)
chain: MTAVANPPSFANLNRPGWINGDQSLNPMNPDDNRMNMFMSRKSLQRSNSSSSVASTASSSSTSTVTSTGSVSTAPTNGSPNSTTSSGGVNGNGNPMSVGGDTAPWSNSQALRKKPQPKNNNTNSWTNARPEGASDLSRSATGRPPMANGVNGAPPTMHHQQQQPSSQPQPQQQPQSAMSAPNQMMSQSNLARPGADQMAPQRLPVLSLLSLNGTFERKTISVPFYPDIMKIGRQTNAKTVPLPTNGFFDSKVLSRQHAEIWANQDGKIFIKDVKSSNGTFVNGNRLSPENRESEPHELQSQDHLELGIDIVSEDQKTVVHHKVAAKVEHAGFVTQTNNLLDMNFGDLDPSNGGMMMPMGGMPPFRGRAGSQASLASNGRMMPGNMGGPIPGMAQQRQFWLNPVTTEHIVKKLQTEMRNAKLQHHDLIRTGQFITALVTKDDIKNQDKPEDIEPPKLHVNGNIPFKSEISKTRFSEPPAPPPSQPLPEKPDVARASDAPSLKRGITERPKSHPSPKDTNVNQVVQLTEALNLAKKELDSNSARVRDLERMLNEEREARLQAEVLMQKMAVSQQAVTNGTSVAALTNGHSATERVFEPPTEQTETNDASALGGLESEKSPKPETSNIEAMAAAFQARIESMTTEMKGLREQLEAFRNRAEQAEAERDADRKTLSQLILQIRQRDEEEQQAAARKSRSSSRGRSQQGGKDKEVDEALPKANGAAVTGPTQSDGSSEDHAEEVPSLALTDTLKPSSSPALVYPHQDRALIQAMPYVSVLGVVFIGMGLMAYLNGWQPQAKN
B2: RAS-2/SMCO-7 (protein, UniProt Q01387 1-229)
chain: MVGNKQVLYKLVVLGDGGVGKTALTIQLCLEHFVETYDPTIEDSYRKQVVIDGQACMLEVLDTAGQEEYTALRDQWIRDGEGFVLVYSISSRSSFARIKKFHHQIQRVKESTSSPSAYPGSSPLAATNPSAPVPIMLVGNKSDRVTEREVSTQEGHALARELGCEFTEASAKTRTNVEKAFYDVVKQLRKQRQQGQSTPRALPPSGNSKSEKYSGTEKPKRPRGKCLII
B3: RCO-1 (protein, UniProt P78706 1-604)
chain: MSMYPHRPIAGAPIQNMGRLNELLDGIRMEFESQARQYETCQHDLATQLQELQVIREKVFQMEQHQMNVKQKYEDEIALLRRQLEARGGAPGNMNPPPQHPGQQQPPAIGLGSNVFSAIMAGQGGQALVPPPPPPQQQEQPAHMPAPPGLQGPPPPPPPPSQQPPFQQQYQGPQGPGNFPPQPPQSTASPGPAGKRGIGRPPAGGPATPQINTPIPYNGGPAQSPQVPTHPTPDHTRMAQHHQPPPPPPSQTNALSELDPDRLPNHIKKMKDDWWVIFNAAVPRVLDVELVHTLQHESVVCCVRFSMDGKYVATGCNRSAQIYDVETGEKLCILQDENIDLTGDLYIRSVCFSPDGKYLATGAEDKLIRVWDIQSRTIRNTFHGHEQDIYSLDFSRDGRTIASGSGDRTVRLWDIETGQNTSVLSIEDGVTTVAISPDKQFVAAGSLDKSVRVWDMRGYLAERLEGPDGHKDSVYSVAFSPDGRNLVSGSLDKTIKMWELSAPRGIPSSAPPKGGRCIKTFEGHRDFVLSVALTPDSQWVLSGSKDRGVQFWDPRTGHTQLMLQGHKNSVISVAPSPVTGPNGVGYFATGSGDMRARIWSYSRI
B4: PP-1 (protein, UniProt Q1K623 1-722)
chain: MYSSQHANMAAASQKPETFMLSTEAQQALPHDAQVALQQVDNLKYFLISAPVDWQPDQYIRRFLLPTGEYVSCVLWNNLFHISGTDIVRCLSFRFQAFGRPVKNSKKFEEGIFSDLRNLKAGSDASLEEPKSPFLDFLYKNNCIRTQKKQKVFFWYSVPHDRLFLDALERDLKREKMGQEATTVAVSEPALSFQYDSSQSLFESLTKAQQANSSSFPAQQLAFQSQSTSPILRAADSMPPPQMMQPMPSQMMQPMGQNMGQQMSQTMSQSMAPLSDGLEAMVSYGAMTMGPAMTCPQPMVKREPDYGRVQYTQNGVPITQVHQRHTSMPAYGLECSPAPSFVSSHFEDYSQRGLSFEPLTPPHQQMGVIGEPAYIANEETGLYTAIPDHLNAGALNGMMQLPPSNLAAPSYPRSYASSSISQDHARGYSPMAAYTVIEGSPTYKQRRRRSSIPPSVLSATTAIAAGTPGVYKPSDLRRSVSASVGPVAEGDESADNSPPGLTYSNPAINMARQQHHEMLELSRHGTPLSTVEGSPALNPMNISMGQSYGPLNDDELAPMSERQMSQGHPGVIRRARSATVSELGPYPQKSHSCPIPSCGRVFKRLEHLKRHVRTHTQERPYVCSYCQKAFSRSDNLAQHKRTHDRGDGSEGTSNLSGEEEEEYSSPTSEGGYVHASGAPSNGNSSTPQSTMYNNLQTLSMPMTISEPQPINTGEMMRNELEF
B5: STE-20 (enzyme, UniProt Q7RZD3 1-954)
chain: T1 sequence

molecular target: GFP-STE-50 (Neurospora crassa) (UniProt Q7RXY9); assay: affinity purification with mass spectrometry; GFP-trap beads incubated with crude cell extracts of N. crassa strains expressing GFP fusions, 2 h at 4°C, three washes with IP buffer; hits filtered against control purifications with GFP as bait; two biological replicates

Row | binding | Molecule
1 | binds | adenylate cyclase capping protein CAP-1 (from UniProt Q7SAN3)

molecular target: GFP-fusion protein of MAK-2 (Neurospora crassa) (UniProt V5IKE7); assay: as above

Row | binding | Molecule
2 | binds | serine/threonine kinase YPK-1 (from UniProt Q7RVX6) (enzyme)
3 | no binding | adenylate cyclase capping protein CAP-1 (from UniProt Q7SAN3)
4 | binds | HAM-5 (from UniProt V5IN79 1-1686)
5 | binds weakly | HAM-3 (from UniProt Q7SCF4 1-862)
6 | binds | type V myosin/NCU01440 (from UniProt V5INB2)
7 | binds | nuclear pore protein NCU01702 (from UniProt Q7RVQ2)

molecular target: T1, STE-20-GFP (Neurospora crassa); assay: as above

Row | binding | Molecule
8 | binds | NRC-1 (enzyme)
9 | binds | HAM-5 (from UniProt V5IN79 1-1686)
10 | binds | STE-50 (from UniProt Q7RXY9)
11 | no binding | CLA-4 (enzyme)
12 | no binding | HAM-2

molecular target: GFP-STE-50 (Neurospora crassa) (UniProt Q7RXY9); assay: as above; remark: another data set of the same source

Row | binding | Molecule
13 | no binding | B1

molecular target: GFP-fusion protein of MAK-2 (Neurospora crassa) (UniProt V5IKE7); assay: as above; remark: another data set of the same source

Row | binding | Molecule
14 | no binding | B2
15 | binds | B4
16 | no binding | B1
17 | no binding | B5

Row | Molecule | binding
18 | B3 | binds

molecular target: GFP-fusion protein of MEK-2 (Neurospora crassa); assay: as above

Row | binding | Molecule
19 | no binding | B2
20 | no binding | B4
21 | no binding | B1
22 | no binding | B5

Row | Molecule | binding
23 | B3 | no binding

molecular target: GFP-fusion protein of NRC-1 (Neurospora crassa); assay: as above

Row | binding | Molecule
24 | binds | B2
25 | no binding | B4
26 | no binding | B1
27 | binds | B5

Row | Molecule | binding
28 | B3 | no binding

molecular target: T1, STE-20-GFP (Neurospora crassa); assay: as above; remark: another data set of the same source

Row | binding | Molecule
29 | binds | B2
30 | no binding | B1

These are yes or no findings as the source states them, for the method shown. Binding seen in cells or lysates may run through a third protein. Here binding means that the protein was enriched with, or labelled near, the bait; the list need not be complete. For part of these data: A no says only that the protein was not detected with the bait. For part of these data: Sequences can lack the tags named with a protein.
